These results are taken from US10201588B2, “Materials and methods of treating dyslipidemia” (UNIVERSITY OF MIAMI, priority 2017, dated 2019).

Marks after values point to notes of the source that are not given here.

The data set concerns T1D rats. Put plainly: T1 diabetes animal model: metabolic cages (food and water intake, 24-h urine volume, body weight) and small intestine length. The class given is in vivo, rat.
[1] abbreviates: T1D rats, MIA-602 25 μg/kg s.c. three times a week for 14 weeks, metabolic cages, 24 h, mean±SD.

In the case of “Phac-Ada-Ty^1-D-Arg^2-Asp^3-Ala^4-Ile^5-Phe(F)5^6-Thr^7-Ala^8-Har^9-Tyr(me)^10-His^11-Orn^12-Val^13-Leu^14-Abu^15-Glu^16-Leu^17-Ser^18-Ala^19-His^20-Orn^21-Leu^22-Leu^23-Glu^24-Asp^25-Ile^26-Nle^27-D-Arg^28-Har^29-NH2 [MIA-602]”, the “Small intestine length, pylorus to ileocecal junction” value (MIA-602-diabetes rats, averaged value (diabetes 155.8±10.6, control 96±17.1)) came to 157.3±7.6 cm. Moreover, for the setting “T1D rats, MIA-602 25 μg/kg s.c. three times a week for 14 weeks, mean±SD”, the Body weight is recorded as 336.3 ± 59.7^c g. Also, under setting [1], the Food intake was 32.9 ± 16.6^b g/day and the Water intake is on record as 121.9 ± 37.5^a ml/day. The 24-hour urine volume (T1D rats, MIA-602 25 μg/kg s.c. three times a week for 14 weeks, metabolic cages, mean±SD) is listed as 84.5 ± 25.9^a ml/day. Also, for the setting “T1D rats, at any point during the study”, the “Effect on body weight during the study” value is “did not affect”.
